{"sequences": {"note": "Protein sequences, listed by entry. Tags and fused reporters are not part of them. Lines headed by an entry give the natural chain unless they say otherwise; changes in a name come on top.", "UniProt P18054": "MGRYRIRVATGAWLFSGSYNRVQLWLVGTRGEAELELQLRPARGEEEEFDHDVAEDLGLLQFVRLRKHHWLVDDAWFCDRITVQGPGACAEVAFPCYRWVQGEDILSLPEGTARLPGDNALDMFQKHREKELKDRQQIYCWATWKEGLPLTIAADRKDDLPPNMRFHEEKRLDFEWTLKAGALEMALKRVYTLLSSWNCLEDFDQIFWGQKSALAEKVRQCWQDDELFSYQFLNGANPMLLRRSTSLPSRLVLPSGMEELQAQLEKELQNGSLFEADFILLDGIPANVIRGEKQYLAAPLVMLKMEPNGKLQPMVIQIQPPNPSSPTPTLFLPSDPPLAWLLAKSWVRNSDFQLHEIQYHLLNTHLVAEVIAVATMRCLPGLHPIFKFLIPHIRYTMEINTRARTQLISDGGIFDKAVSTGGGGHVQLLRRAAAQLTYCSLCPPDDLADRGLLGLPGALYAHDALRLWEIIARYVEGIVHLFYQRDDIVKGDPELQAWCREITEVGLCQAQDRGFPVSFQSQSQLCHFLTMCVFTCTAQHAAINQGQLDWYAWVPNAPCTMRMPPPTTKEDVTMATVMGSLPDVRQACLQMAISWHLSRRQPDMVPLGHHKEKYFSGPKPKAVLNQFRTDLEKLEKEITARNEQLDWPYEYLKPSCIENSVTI"}, "source": "PubChem BioAssay AID1671190", "about": "(National Center for Advancing Translational Sciences (NCATS), 2021)", "note": "In all, about 580,000 compounds went through this assay and about 6,100 (1.1%) were called active. The inconclusive results got no clear call from the source; some entries with a clear call stand among them for comparison. The call rests on the fitted dose curve; in most records, active means well fitted inhibition curve with a large enough effect; inconclusive means small, poorly fitted or top-dose-only effect, or another doubt; inactive means no such curve, though single readings can be large or run the other way. Potencies of inconclusive entries are doubtful fits and often do not repeat. Potency means the concentration at half of the fitted maximal effect.", "data": [{"biological_target": "Polyunsaturated fatty acid lipoxygenase ALOX12 (Homo sapiens) (UniProt P18054)", "experiment": "Primary qHTS assay for inhibitors of human arachidonate 12S-lipoxygenase (ALOX12): Round 2", "conditions": "purified 12hLO, xylenol orange hydroperoxide absorbance; series mostly up to 108 µM", "text": "Assay Provider: Theodore R. Holman Ph.D. University of California, Santa Cruz, California Human lipoxygenase 12hLO is a member of the closely related lipoxygenase family of enzymes which catalyze the site-specific oxidation of arachidonic acid to various hormone precursor molecules and as such is a candidate for drug development in a variety of disease areas, such as cancer and inflammation. Inhibition of 12hLO activity was screened by utilizing arachidonic acid as a substrate. The extent of hydroperoxide product formation was measured by a secondary chromogenic reaction in which xylenol orange (XO, Sigma-Aldrich, cat. number 39,818-7) reacts with the ferric ions produced from the reaction between the hydroperoxide and ferrous ions. The Fe (III)-XO complex is characterized with red-shifted absorbance at 560 nm. A purified preparation of human 12hLO was supplied by Dr. Holman laboratory, University of California, Santa Cruz.\nPROTOCOL TABLE SEQUENCE No. (e.g., 1, 2, 3, etc.); […] (e.g., Cells, Incubation, Reagent, etc.); VALUE; DESCRIPTION 1; Enzyme; 3 uL; 150 nM 12hLO enzyme solution dispensed in 1536-well Greiner black, clear bottom plates. 2; Compound; 23 nL; compounds and controls were added. 3; Incubate; 15 min; room temperature. 4; Substrate; 1 uL; 40 uM arachidonic acid (final concentration). 5; Incubate; 30 min; room temperature. 6; Reagent; 4 uL; Fe-XO solution was added to each well. 7; Incubation; 30 min; room temperature 8; Detector; absorbance; Read 1 at 405 nm absorbance using ViewLux (Perkin-Elmer) CCD imager. 9; Detector; absorbance; Read 2 at 573 nm absorbance using ViewLux (Perkin-Elmer) CCD imager. NOTES (numbers refer to sequence above) 1; 150 nM 12hLO (final concentration) in buffer solution (25 mM Hepes, 0.01% Triton X-100, pH 7.0) was dispensed in columns 1, 2, 5-48. Column 1 is neutral (100% activity). Buffer only was dispensed in columns 3 and 4 as no enzyme negative controls. The plates were covered with metal lids with gas-exchange holes. 2; Compounds were pin transferred via a Kalypsys Pin Tool (Wako USA) in column 5-48. Control compound was transferred in column 2, titration of nordihydroguaiaretic acid (NDGA, Sigma-Aldrich, N5023) with top concentration of 20 mM in DMSO then 1:3 dilution in duplicate. Dilution factor of 23 nL into 4 uL final assay volume. 3; Covered assay plates were incubated for 15 min at room temperature. 4; Substrate was added to start the reaction; 40 uM arachidonic acid (Sigma-Aldrich, St. Louis, MO) was dispensed throughout the plate. 6; Chromogenic detection reagent solution (divalent iron/xylenol orange, Fe-XO) was added to each well: 200 uM xylenol orange, 300 uM ferrous ammonium sulfate prepared freshly in 50 mM sulfuric acid. 8, 9; Two absorbance readouts were obtained at 405 nm and at 573 nm using a ViewLux high-throughput CCD plate imager (Perkin-Elmer). The 573 to 405 (Read 2 / Read 1) absorbance ratio was used to compute reaction progress.", "values": [{"smiles": "CCOCCCNc1oc(/C=C/c2ccccc2OC)nc1C#N", "Potency": "inconclusive: 56.2 µM [inhibitor, partial curve, poor fit]"}, {"smiles": "N#C/C(=C/c1cccc(C#N)c1)C(=O)c1c[nH]c2cc(F)ccc12", "Potency": "active: 11.2 µM"}, {"smiles": "COC(=O)/C(=C\\c1ccc(OC(F)(F)F)cc1)NC(=O)c1ccccc1", "Potency": "inconclusive: 100 µM [inhibitor, partial curve, poor fit]"}, {"smiles": "COc1cc(C(c2c(C(=O)O)[nH]c3ccccc23)c2c(C(=O)O)[nH]c3ccccc23)ccc1OCc1ccccc1", "Potency": "active: 28.2 µM"}, {"smiles": "CCc1ccc(N2C(=O)C(Cl)=C(N3CCCCCC3)C2=O)cc1", "Potency": "inconclusive: 44.7 µM [inhibitor, partial curve, poor fit]"}, {"smiles": "CCc1nc2ccc(C(=O)NCc3ccc4c(c3)OCO4)cn2c1N(CCC(C)C)CCN(C)C", "Potency": "inconclusive: 5.62 µM [inhibitor, full curve, poor fit]"}, {"smiles": "Cc1nc2ccccc2nc1CN1C(=O)C2CCCN2C1=O", "note": "(stereo unspecified)", "Potency": "inactive"}, {"smiles": "O=C(O)c1cc(-c2cccnc2)nc2cc(N3CCOCC3)ccc12", "Potency": "inconclusive: 10 µM [inhibitor, full curve, poor fit]"}, {"smiles": "COc1ccc(CCN(CC(=O)NC(C)(C)C)C(=O)Cn2nnc(-c3ccc(C)o3)n2)cc1OC", "Potency": "inconclusive: 100 µM [inhibitor, partial curve, poor fit]"}, {"smiles": "CCCCCCOC(=O)C(C#N)c1nc2ccccc2nc1N1CCN(C)CC1", "note": "(stereo unspecified)", "Potency": "inconclusive: 17.8 µM [inhibitor, full curve, poor fit]"}, {"smiles": "Cc1nc(C)c(C(=O)C2=C(O)C(=O)N(CCN3CCOCC3)C2c2cccnc2)s1", "note": "(stereo unspecified)", "Potency": "inconclusive: 35.5 µM [inhibitor, partial curve, poor fit]"}, {"smiles": "COCCN1C(=O)CS(=O)(=O)C12CCN(C(=O)Cc1cccc(F)c1)CC2", "Potency": "inactive"}, {"smiles": "Cc1nc2ncccn2c1-c1csc(Nc2cccc(C(=O)O)c2)n1", "Potency": "inconclusive: 63.1 µM [inhibitor, partial curve, poor fit]"}, {"smiles": "CCCn1ncc(-c2nc(-c3ccncc3)no2)c1C", "Potency": "inactive"}, {"smiles": "N/C(=N\\OC(=O)c1ccco1)c1cccc(Br)c1", "Potency": "inactive"}, {"smiles": "CCOCCn1c(N2CCCCCC2)nc2c1c(=O)[nH]c(=O)n2C", "Potency": "inactive"}, {"smiles": "Cc1nc2c(OCCC3CCCCC3)cccn2c1N(C)C(=O)CCC1CCCC1", "Potency": "inconclusive: 50.1 µM [inhibitor, partial curve, poor fit]"}, {"smiles": "O=C(Nc1cc(N2CCCCC2)ncn1)c1ccccc1", "Potency": "inconclusive: 11.2 µM [inhibitor, full curve, poor fit]"}, {"smiles": "Cc1[nH]n(-c2ccccc2)c(=O)c1/C=N/O", "Potency": "inactive"}, {"smiles": "Cc1ccnc(NC(=O)C(C)N2C(=O)c3ccccc3S2(=O)=O)c1", "note": "(stereo unspecified)", "Potency": "inconclusive: 3.16 µM [inhibitor, full curve, poor fit]"}, {"smiles": "Cc1ccc(CC(CC(=O)O)C(=O)NCc2ccccc2)cc1", "note": "(stereo unspecified)", "Potency": "inactive"}, {"smiles": "Cc1cc(C(=O)Nc2ccc(F)cc2C)cs1", "Potency": "inactive"}, {"smiles": "CC(C)(C)C(=O)OC/C(N)=N/OC(=O)c1ccc(Cl)cc1", "Potency": "inconclusive: 126 µM [inhibitor, single point]"}, {"smiles": "CCCCn1nnnc1C(c1ccccc1)N1CCN(c2c(Cl)cncc2Cl)CC1", "note": "(stereo unspecified)", "Potency": "inactive"}, {"smiles": "Cc1ccccc1S(=O)(=O)N1[C@@H](c2ccc(Br)cc2)C(C(=O)O)=CC[C@H]1c1ccc(Cl)cc1", "Potency": "inconclusive: 44.7 µM [inhibitor, partial curve, poor fit]"}, {"smiles": "CCOC(=O)C1=C(C)NC(SCC(=O)O)=C(C#N)C1c1ccco1", "note": "(stereo unspecified)", "Potency": "inactive"}, {"smiles": "CCOC(=O)c1nnc2cc(-c3ccccc3)nn2c1C", "Potency": "inactive"}, {"smiles": "Cc1cc(C)c2c(=O)n3c(nc2c1)C(Cc1ccc(O)cc1)NC(=O)c1cccnc1-3", "note": "(stereo unspecified)", "Potency": "inactive"}, {"smiles": "CCOc1cc(CNCc2cc(OC)cc(OC)c2)ccc1OC", "Potency": "inconclusive: 1 µM [inhibitor, full curve, poor fit]"}, {"smiles": "Cc1cc(C)c(NC(=O)CNC(=O)c2cc3ccc(F)cc3nc2C)c(C)c1", "Potency": "inconclusive: 39.8 µM [inhibitor, partial curve, poor fit]"}, {"smiles": "COc1ccc(C2=NOC(Cn3nc(-c4ccccc4C)cc3C(=O)O)C2)cc1", "note": "(stereo unspecified)", "Potency": "inconclusive: 44.7 µM [inhibitor, partial curve, poor fit]"}, {"smiles": "CCN(CC)C(=O)C(NC(=O)c1ccc(F)cc1)C1CCN(C(=O)c2ccccc2F)CC1", "note": "(stereo unspecified)", "Potency": "inactive"}, {"smiles": "CN1C[C@@H](NC(=O)c2ccc(-c3ccccc3)cc2)C[C@H]1c1nc(-c2ccc(Cl)cc2)no1", "Potency": "inactive"}, {"smiles": "COc1ccc(OC)c(C(C)NC(=O)CCc2cccs2)c1", "note": "(stereo unspecified)", "Potency": "inconclusive: 39.8 µM [inhibitor, single point]"}, {"smiles": "N#Cc1ccc(NC(=O)NCc2cccnc2)cc1", "Potency": "inactive"}, {"smiles": "O=C(O)c1ccc(Cl)c(S(=O)(=O)N(Cc2ccccc2)c2ccc(Cl)cc2)c1", "Potency": "inconclusive: 50.1 µM [inhibitor, partial curve, poor fit]"}, {"smiles": "CCOC(=O)N1CCN(CCCc2ccccc2)CC1", "Potency": "inconclusive: 0.447 µM [inhibitor, full curve, poor fit]"}, {"smiles": "COc1cccc(-c2nc(-c3c(C)noc3C)cc3c2cc(C)n3CCN(C)C)c1", "Potency": "inconclusive: 70.8 µM [inhibitor, partial curve]"}, {"smiles": "Cc1ccc2c(c1)C(=O)CC1(CCCCCC1)O2", "Potency": "inconclusive: 126 µM [inhibitor, single point]"}, {"smiles": "O=C(CCN1CCOCC1)NNC(=S)NC(=O)c1ccccc1", "Potency": "inactive"}, {"smiles": "O=C(c1ccc2c(c1)OCCO2)C1CCN(S(=O)(=O)c2ccccc2F)CC1", "Potency": "inactive"}, {"smiles": "Cc1ccc(-n2c(SCC(=O)NCc3ccc(F)cc3)nc3c([nH]c4ccccc43)c2=O)cc1", "Potency": "inconclusive: 89.1 µM [inhibitor, partial curve, poor fit]"}, {"smiles": "O=c1[nH]c2ccc(S(=O)(=O)N3CCN(C4CCCCC4)CC3)cc2[nH]c1=O", "Potency": "inactive"}, {"smiles": "CCC(CO)(CO)NC(=O)c1nc(-c2ccc3cc[nH]c3c2)no1", "Potency": "inconclusive: 126 µM [inhibitor, partial curve, poor fit]"}, {"smiles": "Oc1ccccc1C(=S)N1CCN(c2cccc(Cl)c2)CC1", "Potency": "inconclusive: 44.7 µM [inhibitor, partial curve, poor fit]"}, {"smiles": "CC1(C)CC(=O)C2=C(C1)N(c1ccccc1)C(=O)C(C(=O)OCc1ccccc1)C2", "note": "(stereo unspecified)", "Potency": "inactive"}, {"smiles": "Nc1ncnc2c1ncn2[C@@H]1O[C@H](COP(=O)(O)OP(=O)(O)OP(=O)(O)OP(=O)(O)OC[C@@H]2O[C@H](n3cnc4c(N)ncnc43)[C@@H](O)[C@H]2O)[C@@H](O)[C@H]1O", "Potency": "inconclusive: 6.31 µM [inhibitor, full curve, poor fit]"}, {"smiles": "NC(=O)c1c(NC(=O)c2ccccc2Cl)sc2c1CCC2", "Potency": "active: 28.2 µM"}, {"smiles": "O=C(NC(=S)Nc1ccc(S(=O)(=O)N2CCCC2)cc1)C1CCC1", "Potency": "inconclusive: 15.8 µM [inhibitor, full curve]"}, {"smiles": "CN(C)Cc1cn([C@H]2CO[C@H]3[C@@H]2OC[C@@H]3NC(=O)NC2CCCCC2)nn1", "Potency": "inactive"}, {"smiles": "O=C(NCc1ccc(F)cc1Cl)C1CCN(C(=O)c2ncn3c2COC(c2ccccc2)C3)CC1", "note": "(stereo unspecified)", "Potency": "inactive"}, {"smiles": "O=C(Nc1ccccc1Cl)/C(Cl)=C(\\Cl)S(=O)c1ccccc1", "note": "(stereo unspecified)", "Potency": "inconclusive: 50.1 µM [inhibitor, partial curve, poor fit]"}, {"smiles": "Cc1cc(C)cc(NC(=O)CCc2c(C)nn(-c3ccc(N4CCCC4)nn3)c2C)c1", "Potency": "inactive"}, {"smiles": "CSc1nsc(SC)c1C(=O)Nc1ccc(C(C)(C)C)cc1", "Potency": "inactive"}, {"smiles": "COC(=O)Cc1c[nH]c2cccc(OCC(O)CN(Cc3ccccc3)C(C)C)c12", "note": "(stereo unspecified)", "Potency": "inconclusive: 79.4 µM [inhibitor, partial curve, poor fit]"}, {"smiles": "COCCNC(=O)C1CCCN(C(=O)c2nc(C)oc2C)CC1", "note": "(stereo unspecified)", "Potency": "inconclusive: 126 µM [inhibitor, partial curve, poor fit]"}, {"smiles": "O=C(Nc1cccnc1)c1ccc(COc2ccccc2Cl)o1", "Potency": "inactive"}, {"smiles": "COc1ccc(Cn2c(=O)c3sccc3n(CC(=O)NCc3ccccc3)c2=O)cc1", "Potency": "inactive"}, {"smiles": "CCN(Cc1ccccc1)c1ncncc1-c1nc(-c2ccccc2)no1", "Potency": "inactive"}, {"smiles": "COc1ccc(S(=O)(=O)N2CCN(Cc3ccco3)CC2)cc1", "Potency": "active: 2.51 µM"}, {"smiles": "Cc1ccc(S(=O)(=O)N2CCCC(CCC(=O)NCc3ccccc3F)C2)s1", "note": "(stereo unspecified)", "Potency": "inconclusive: 44.7 µM [inhibitor, partial curve, poor fit]"}, {"smiles": "Cc1ccc(C(=O)COC(=O)c2cc3ccccc3[nH]2)c(C)c1", "Potency": "inactive"}, {"smiles": "Cc1c(O)ccc2c(CN3CCN(c4ccccc4)CC3)cc(=O)oc12", "Potency": "inactive"}, {"smiles": "CN1c2cc(C(=O)Nc3ccc(Br)cc3)ccc2C(=O)N2CCCCC21", "note": "(stereo unspecified)", "Potency": "inactive"}, {"smiles": "Cc1cccc(-c2noc(-c3cc4ccccc4oc3=O)n2)c1", "Potency": "inactive"}, {"smiles": "COc1cc(C(=O)NNC(=S)Nc2ccc(S(N)(=O)=O)cc2)cc(OC)c1OC", "Potency": "inconclusive: 44.7 µM [inhibitor, partial curve, poor fit]"}, {"smiles": "Cc1cccc(CC(=O)N2CCC(c3n[nH]c(=O)n3-c3ccccc3)CC2)c1", "Potency": "inconclusive: 39.8 µM [inhibitor, partial curve, poor fit]"}, {"smiles": "COc1ccc(C(=O)CCC(=O)OCC(=O)c2ccc3c(c2)OCCO3)cc1", "Potency": "inactive"}, {"smiles": "Cc1ccc(CNC(=O)CSc2c3c(nc4cc(Cl)ccc24)CCCC3)o1", "Potency": "inconclusive: 31.6 µM [inhibitor, partial curve, poor fit]"}, {"smiles": "NC(=O)CC(NC(=O)Cc1ccc(Cl)cc1)c1ccc(N2CCN(c3ccccn3)CC2)c([N+](=O)[O-])c1", "note": "(stereo unspecified)", "Potency": "inactive"}, {"smiles": "CCC(NC(=O)c1ccccc1NC(=O)C(C)(C)C)C(=O)N1CCCC1", "note": "(stereo unspecified)", "Potency": "inactive"}]}]}
